Results are given in words; binding and its absence hold for the method and conditions named. Binding seen in cells or lysates may run through a third protein. Binding can be weak; no strength is given.

This assay has as its target 14-3-3 protein (human (endogenous in T-47D and MFM-223)). As to the kind of experiment: co-IP; IP of endogenous 14-3-3 with rabbit polyclonal 14-3-3 (pan) antibody from T-47D and MFM-223 lysates; non-denaturing lysis buffer (20 mM Tris HCl pH 8, 137 nM NaCl, 10% glycerol, 1% NP-40, 2 mM EDTA), overnight at 4°C, Protein A-Sepharose beads; immunoblot for 14-3-3, C1orf64 and AR; control non-specific rabbit IgG; three replicates. Background: In western blotting, separated proteins are transferred to a membrane and probed.

B1: C1orf64 (protein, UniProt Q8NEQ6 1-169)
chain: MAPSEDPRDWRANLKGTIRETGLETSSGGKLAGHQKTVPTAHLTFVIDCTHGKQLSLAATASPPQAPSPNRGLVTPPMKTYIVFCGENWPHLTRVTPMGGGCLAQARATLPLCRGSVASASFPVSPLCPQEVPEAKGKPVKAAPVRSSTWGTVKDSLKALSSCVCGQAD
For B1, the binding result was “binds”.

The values above are taken from paper PMC5593696.
